Structures can show the parent of a compound that is named as a salt. The list shows a part of the results. Cut-off read from the data, not from the text of the source: active = 1.25 or more and inactive = the rest. Repeats are few or missing, and single values can be far off.

The test system of the assay is Kcc2-LUC knock-in mouse primary cortical neurons (Kcc2 promoter reporter). Description: Kcc2 promoter-driven luciferase activity relative to vehicle control (fold of vehicle (ratio)); higher = stronger Kcc2 promoter activation (Kcc2 expression enhancer). The conditions noted are these: 100 nM; 48 h.
Consider `Cc1ccc(S(=O)(=O)SC/C=C/CSS(=O)(=O)c2ccc(C)cc2)cc1` [Benzenesulfonothioic acid,2-butene-1,4-diyl ester, (Z)-], for which the “Kcc2 promoter-driven luciferase activity” value was inactive: 0.82.
Under `C=C1C(=O)OC2CC(C)C3(O)CCC(=O)C3(C)CC12` (centres undefined) [Sequiterpene Lactone 326] stands active: 1.36; under `Cc1c2ccncc2cc2c1[nH]c1ccccc12` [5-Methyl-6H-pyrido[4,3-b]carbazole], inactive: 1.07; under `Nc1ccc2cc3ccc(N)cc3nc2c1` [Proflavine monohydrochloride], inactive: 0.8.
In the case of `CO[C@@H]1[C@@H](O[C@@H]2O[C@H](C)[C@@H](O[C@H]3C[C@@](C)(O)[C@@H](OC(=O)CC(C)C)[C@H](C)O3)[C@H](N(C)C)[C@H]2O)[C@@H](CC=O)C[C@@H](C)C(=O)/C=C/[C@@H]2O[C@@H]2C[C@@H](C)OC(=O)C[C@H]1OC(C)=O` [Carbomycin] it was inactive: 0.83; in that of `CCc1cccc(CC)c1NC(=O)C(C#N)C1=C(Cl)C(=O)c2ccccc2C1=O` (centres undefined), inactive: 0.01; in that of `CC(C)C[C@@H]1NC(=O)[C@H](C(C)C)NC(=O)[C@H](C(C)C)OC(=O)[C@@H](CC(C)C)N(C)C(=O)[C@@H](C(C)C)NC(=O)[C@H](C(C)C)OC1=O` [Sporidesmolide 1], inactive: 1.15.
In the case of `C[CH2][Ge]([CH2]C)([CH2]C)[O]C(=O)CCC(=O)[O][Ge]([CH2]C)([CH2]C)[CH2]C` [Bis(Triethylgermyl) Butanedioate], the “Kcc2 promoter-driven luciferase activity” value was inactive: 0.98.
Under `C=C1CC(Cn2cc(Br)c(=O)[nH]c2=O)(c2ccc(-c3ccccc3)cc2)OC1=O` (centres undefined) stands inactive: 0.96; under `C[C@@H]1CC[C@H]2C(C)(C)[C@H]3C[C@@]12CC[C@@]3(C)O` [Cedrol], inactive: 0.969.
In the case of `COc1ccc(/C=C/c2cc(O)cc(O[C@@H]3O[C@H](CO)[C@@H](O)[C@H](O)[C@H]3O)c2)cc1O` [Ponticin] it was inactive: 0.91.
Turning to `CN(C)CCOC1(Cc2ccc(F)cc2)CCC(C(C)(C)C)CC1` (centres undefined), the “Kcc2 promoter-driven luciferase activity” value was inactive: 0.964.
In the case of `CN(C)c1cccc(F)c1C(=O)NC(=O)Nc1ccc(Cl)cc1` [Clanfenur] it was inactive: 0.91; in that of `C(=N\NC1=NCCN1)/c1c2ccccc2c(/C=N/NC2=NCCN2)c2ccccc12`, inactive: 0.82.
In the case of `N#CC(C#N)=Cc1ccc(Oc2ccccc2)cc1` [2-[(4-phenoxyphenyl)methylidene]propanedinitrile], the “Kcc2 promoter-driven luciferase activity” value was inactive: 1.05.
On to `COC(=O)[C@]1(C)CCC[C@]2(C)C3=CC(=O)[C@@]4(C(C)C)O[C@H]4[C@]3(O)CC[C@@H]12` [Triptolide Analog], for which the “Kcc2 promoter-driven luciferase activity” value was inactive: 0.983.
With `COc1cc(O)c(Cc2ccccc2O)c(O)c1C(=O)CCc1ccccc1` [Uvaretin], the “Kcc2 promoter-driven luciferase activity” value was inactive: 1.12.
Under `COc1cc2oc3cc(=O)cc4oc(-c5ccccc5)cc(c2c2c1CC[C@@H](c1ccccc1)O2)c43` [Nordracorubin] stands inactive: 1.23.
In the case of `CCCCCCCCCCCCC(O)C(=O)O` (centres undefined) [2-Hydroxytetradecanoic acid] it was inactive: 1.04; in that of `COc1ccc(/C=C2\CCCc3ccccc3C2=O)cc1`, inactive: 0.95.
`C=C1C(=O)O[C@H]2C[C@@H]1C(OC(C)=O)C/C(C)=C/CC/C(C)=C/CC[C@@]2(C)O` (some centres undefined) [Crassin Acetate]: the “Kcc2 promoter-driven luciferase activity” value is inactive: 1.
In the case of `CCOC(=O)Nc1nc2ccc(Cn3cccc3)cc2[nH]1` it was inactive: 0.49; in that of `CC(=O)O[C@@H]1CO[C@H]2O[C@H]3[C@@H](C(C=O)=C[C@H](O)[C@@H]4C5=C(C(C)C)CC[C@]5(C)CC[C@@]34C)[C@@]2(O)C1=O` [Straital B], inactive: 0.87.
For `COc1ccc(S(=O)(=O)NN=CC(=O)O)cc1` [Acetic acid, [[(4-methoxyphenyl)sulfonyl]hydrazono]-], the “Kcc2 promoter-driven luciferase activity” value is inactive: 0.61.
In the case of `CN[C@@H]1[C@H](O)[C@H](NC)[C@H]2O[C@@]3(O)C(=O)C[C@@H](C)O[C@H]3O[C@@H]2[C@H]1O` [Spectinomycin Sulfate] it was inactive: 1.23; in that of `O=C1c2cccc(NCCCNCCO)c2C(=O)c2cccc(NCCCNCCO)c21`, inactive: 1.11; in that of `CCOC(=O)NC(Nc1ccc(F)cc1)(C(=O)OCC)C(F)(F)F` (centres undefined), inactive: 1.02.
In the case of `COc1ccc(/C(=N/O)C(c2ccc(OC)cc2)C2C(=O)Oc3ccccc32)cc1` (centres undefined) it was inactive: 0.99; in that of `N#CCCN(CCC#N)c1ccc(C=C2N=C(c3cc([N+](=O)[O-])ccc3Cl)OC2=O)cc1` (stereo in doubt), inactive: 0.82.
Under `CN/N=C(\C)C(CN1CCCCC1)C(C1=C(O)c2ccccc2OC1)c1ccccc1` (centres undefined) stands inactive: 1.2; under `O=C(CC(O)(C(F)(F)F)C(F)(F)Cl)CC(O)(C(F)(F)F)C(F)(F)Cl` (centres undefined), inactive: 0.88.
With `S=c1[nH]cnc2nc[nH]c12` [Mercaptopurine], the “Kcc2 promoter-driven luciferase activity” value is inactive: 1.13.
In the case of `CC(=O)/C(C)=N/NC(=O)c1ccccc1O` [2-Hydroxy-N'-(3-oxobutan-2-ylidene)benzohydrazide] it was inactive: 1.24; in that of `CC[C@@]1(O)C[C@H](O[C@H]2C[C@H](N(C)C)[C@H](O[C@H]3C[C@H](O)[C@H](O[C@H]4CCC(=O)[C@H](C)O4)[C@H](C)O3)[C@H](C)O2)c2c(cc3c(c2O)C(=O)c2c(O)cccc2C3=O)[C@H]1C(=O)OC` [aclarubicin], active: 1.49; in that of `CC(=O)CCCCn1c(=O)c2c(ncn2C)n(C)c1=O` [Pentoxifylline], inactive: 0.959.
As to `Cc1ccc2c(sc(-c3ccc4c(c3)sc(-c3ccc(N(C)C)cc3)[n+]4C)[n+]2C)c1S(=O)(=O)O.Cc1ccc2c(sc(-c3ccc4c(c3)sc(-c3ccc5c(c3)sc(-c3ccc(N(C)C)cc3)[n+]5C)[n+]4C)[n+]2C)c1S(=O)(=O)O`, the “Kcc2 promoter-driven luciferase activity” value is inactive: 0.1.
For the compound `O=C1C2=Nc3ccccc3C(O)N2c2ccccc21` (centres undefined) [12-hydroxy-12H-indolo[2,1-b]quinazolin-6-one], the “Kcc2 promoter-driven luciferase activity” value is inactive: 0.48.
As for `CO[C@H]1C[C@@H]2CC[C@@H](C)[C@@](O)(O2)C(=O)C(=O)N2CCCC[C@H]2C(=O)O[C@H]([C@H](C)C[C@@H]2CC[C@@H](O)[C@H](OC)C2)CC(=O)[C@H](C)/C=C(\C)[C@@H](O)[C@@H](OC)C(=O)[C@H](C)C[C@H](C)/C=C/C=C/C=C/1C` [Rapamycin], the “Kcc2 promoter-driven luciferase activity” value was inactive: 0.01.
Under `COc1cc(C(O)CCBr)c(OC)cc1C` (centres undefined) [3-Bromo-1-(2,5-dimethoxy-4-methylphenyl)-1-propanol] stands inactive: 1.04.
